From the supplement of paper PMC10849652
The other results are listed elsewhere or left out. Residues, ends and D or L forms follow the SMILES beside them. *: point of attachment. Cbz = O=C(OCc1ccccc1)*

The chains behind the UniProt entries cited, without tags or fusion partners. Where a name states a change or a piece, a line headed by the entry shows the natural chain unless it says otherwise.
UniProt P41247: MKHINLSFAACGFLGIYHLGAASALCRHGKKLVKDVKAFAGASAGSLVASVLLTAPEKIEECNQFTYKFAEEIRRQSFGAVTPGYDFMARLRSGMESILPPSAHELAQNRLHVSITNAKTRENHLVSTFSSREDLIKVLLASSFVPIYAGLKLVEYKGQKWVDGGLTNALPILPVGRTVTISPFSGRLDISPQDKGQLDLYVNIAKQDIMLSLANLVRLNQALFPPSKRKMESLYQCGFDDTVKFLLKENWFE
UniProt Q9HBL7: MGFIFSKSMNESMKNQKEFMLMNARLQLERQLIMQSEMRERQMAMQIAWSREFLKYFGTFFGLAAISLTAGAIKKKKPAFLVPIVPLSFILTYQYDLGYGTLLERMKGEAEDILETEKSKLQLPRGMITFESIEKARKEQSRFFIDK
UniProt Q04941: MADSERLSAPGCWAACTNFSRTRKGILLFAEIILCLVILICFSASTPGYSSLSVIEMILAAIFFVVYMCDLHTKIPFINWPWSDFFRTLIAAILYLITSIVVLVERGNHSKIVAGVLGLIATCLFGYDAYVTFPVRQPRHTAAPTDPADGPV
UniProt Q15126: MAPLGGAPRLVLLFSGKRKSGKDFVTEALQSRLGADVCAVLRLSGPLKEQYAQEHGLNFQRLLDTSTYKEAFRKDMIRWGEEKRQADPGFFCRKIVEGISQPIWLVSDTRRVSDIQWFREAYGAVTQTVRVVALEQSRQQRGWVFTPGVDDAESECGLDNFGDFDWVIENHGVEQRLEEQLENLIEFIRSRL
UniProt Q9BX97: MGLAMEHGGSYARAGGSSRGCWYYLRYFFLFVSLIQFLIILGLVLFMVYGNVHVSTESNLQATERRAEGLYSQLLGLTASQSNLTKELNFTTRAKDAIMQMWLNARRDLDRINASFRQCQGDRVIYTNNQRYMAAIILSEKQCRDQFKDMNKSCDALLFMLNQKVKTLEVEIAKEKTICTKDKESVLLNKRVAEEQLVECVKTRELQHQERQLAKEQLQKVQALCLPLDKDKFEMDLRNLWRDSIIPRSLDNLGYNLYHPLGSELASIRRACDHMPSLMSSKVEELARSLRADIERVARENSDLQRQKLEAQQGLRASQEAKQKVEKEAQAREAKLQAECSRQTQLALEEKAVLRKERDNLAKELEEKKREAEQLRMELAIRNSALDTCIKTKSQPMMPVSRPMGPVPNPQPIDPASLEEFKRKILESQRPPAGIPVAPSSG
UniProt Q13794: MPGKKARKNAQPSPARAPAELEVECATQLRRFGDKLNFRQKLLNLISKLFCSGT
UniProt P45877: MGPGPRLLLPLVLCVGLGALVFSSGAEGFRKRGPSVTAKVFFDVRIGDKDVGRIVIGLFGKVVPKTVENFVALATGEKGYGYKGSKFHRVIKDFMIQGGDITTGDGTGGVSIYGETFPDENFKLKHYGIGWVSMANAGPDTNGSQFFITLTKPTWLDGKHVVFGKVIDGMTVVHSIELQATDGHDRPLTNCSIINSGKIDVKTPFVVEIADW
UniProt Q99541: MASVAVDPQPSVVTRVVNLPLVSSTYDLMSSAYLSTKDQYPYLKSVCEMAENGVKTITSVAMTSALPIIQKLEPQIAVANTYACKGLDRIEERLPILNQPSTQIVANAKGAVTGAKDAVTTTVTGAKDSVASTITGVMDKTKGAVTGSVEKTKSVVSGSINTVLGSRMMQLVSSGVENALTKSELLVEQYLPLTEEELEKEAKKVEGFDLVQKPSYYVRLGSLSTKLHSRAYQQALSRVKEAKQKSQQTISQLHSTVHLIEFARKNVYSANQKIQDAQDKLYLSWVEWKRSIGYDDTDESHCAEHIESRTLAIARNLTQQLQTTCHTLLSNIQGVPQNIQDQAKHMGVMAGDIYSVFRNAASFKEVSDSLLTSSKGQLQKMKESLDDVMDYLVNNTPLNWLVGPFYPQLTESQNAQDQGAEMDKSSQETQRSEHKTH
UniProt Q6EEV4: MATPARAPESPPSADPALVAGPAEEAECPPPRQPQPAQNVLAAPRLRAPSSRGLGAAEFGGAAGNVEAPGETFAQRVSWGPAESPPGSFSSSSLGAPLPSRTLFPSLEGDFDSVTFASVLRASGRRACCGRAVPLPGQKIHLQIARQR
UniProt Q9H307: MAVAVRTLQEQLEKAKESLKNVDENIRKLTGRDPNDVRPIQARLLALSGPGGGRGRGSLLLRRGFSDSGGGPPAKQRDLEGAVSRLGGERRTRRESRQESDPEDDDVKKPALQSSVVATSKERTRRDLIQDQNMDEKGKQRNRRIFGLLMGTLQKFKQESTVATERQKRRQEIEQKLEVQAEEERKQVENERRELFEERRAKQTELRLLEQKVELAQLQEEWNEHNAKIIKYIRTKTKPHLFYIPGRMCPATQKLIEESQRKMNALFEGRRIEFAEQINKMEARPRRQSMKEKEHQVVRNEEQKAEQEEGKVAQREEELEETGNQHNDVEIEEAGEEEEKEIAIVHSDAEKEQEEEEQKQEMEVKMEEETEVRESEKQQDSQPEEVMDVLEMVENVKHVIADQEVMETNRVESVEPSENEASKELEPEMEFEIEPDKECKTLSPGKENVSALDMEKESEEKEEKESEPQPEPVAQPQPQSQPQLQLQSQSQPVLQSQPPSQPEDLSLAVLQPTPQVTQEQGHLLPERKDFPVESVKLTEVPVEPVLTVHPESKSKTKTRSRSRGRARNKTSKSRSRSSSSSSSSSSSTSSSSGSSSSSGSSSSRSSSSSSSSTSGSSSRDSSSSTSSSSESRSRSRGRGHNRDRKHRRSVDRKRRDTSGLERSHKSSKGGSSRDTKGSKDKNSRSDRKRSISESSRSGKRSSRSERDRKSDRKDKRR
UniProt Q9Y535: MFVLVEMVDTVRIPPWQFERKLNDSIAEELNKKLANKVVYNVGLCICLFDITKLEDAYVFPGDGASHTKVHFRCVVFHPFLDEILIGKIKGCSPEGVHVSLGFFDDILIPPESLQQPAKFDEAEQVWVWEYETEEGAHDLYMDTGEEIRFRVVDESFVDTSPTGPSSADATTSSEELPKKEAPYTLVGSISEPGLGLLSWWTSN
UniProt Q08752, whole entry, looked up: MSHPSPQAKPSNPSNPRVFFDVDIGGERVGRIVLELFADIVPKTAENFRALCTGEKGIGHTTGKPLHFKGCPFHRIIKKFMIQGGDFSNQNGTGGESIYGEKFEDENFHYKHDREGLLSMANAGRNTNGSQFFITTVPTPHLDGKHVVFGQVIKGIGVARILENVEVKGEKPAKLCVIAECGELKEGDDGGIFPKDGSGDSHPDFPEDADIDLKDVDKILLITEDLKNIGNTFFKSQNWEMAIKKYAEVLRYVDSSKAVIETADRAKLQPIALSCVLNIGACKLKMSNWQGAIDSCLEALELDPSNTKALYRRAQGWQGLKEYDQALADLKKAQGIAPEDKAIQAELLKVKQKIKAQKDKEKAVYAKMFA
UniProt P00747, whole entry, looked up: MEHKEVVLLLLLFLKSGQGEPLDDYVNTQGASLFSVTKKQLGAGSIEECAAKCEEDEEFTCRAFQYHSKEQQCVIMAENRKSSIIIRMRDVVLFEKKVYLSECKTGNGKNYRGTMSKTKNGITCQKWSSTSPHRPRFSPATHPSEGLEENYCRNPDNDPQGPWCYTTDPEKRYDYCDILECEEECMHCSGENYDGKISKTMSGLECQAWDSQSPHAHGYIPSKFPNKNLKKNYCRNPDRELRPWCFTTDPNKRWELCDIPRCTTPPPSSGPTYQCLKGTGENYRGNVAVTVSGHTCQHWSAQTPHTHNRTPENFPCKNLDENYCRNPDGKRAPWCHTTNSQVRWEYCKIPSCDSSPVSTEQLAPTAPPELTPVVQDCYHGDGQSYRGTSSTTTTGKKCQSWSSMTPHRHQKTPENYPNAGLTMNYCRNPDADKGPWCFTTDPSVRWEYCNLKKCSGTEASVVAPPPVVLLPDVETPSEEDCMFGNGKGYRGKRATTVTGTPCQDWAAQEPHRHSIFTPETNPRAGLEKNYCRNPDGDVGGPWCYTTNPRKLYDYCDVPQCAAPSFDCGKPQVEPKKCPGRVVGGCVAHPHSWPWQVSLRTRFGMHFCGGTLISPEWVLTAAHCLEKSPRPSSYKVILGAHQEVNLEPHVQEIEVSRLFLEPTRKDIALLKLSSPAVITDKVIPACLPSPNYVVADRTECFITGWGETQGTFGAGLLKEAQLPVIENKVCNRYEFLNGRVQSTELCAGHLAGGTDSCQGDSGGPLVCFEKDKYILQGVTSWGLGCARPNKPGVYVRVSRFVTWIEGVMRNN
UniProt O15305: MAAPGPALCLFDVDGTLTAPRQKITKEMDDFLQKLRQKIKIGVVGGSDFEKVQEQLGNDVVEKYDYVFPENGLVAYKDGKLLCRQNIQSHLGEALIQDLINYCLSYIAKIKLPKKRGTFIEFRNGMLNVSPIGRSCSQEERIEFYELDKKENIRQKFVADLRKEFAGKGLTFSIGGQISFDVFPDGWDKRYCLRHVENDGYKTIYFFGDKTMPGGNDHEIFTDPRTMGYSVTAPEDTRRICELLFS
UniProt A8CG34, whole entry, looked up: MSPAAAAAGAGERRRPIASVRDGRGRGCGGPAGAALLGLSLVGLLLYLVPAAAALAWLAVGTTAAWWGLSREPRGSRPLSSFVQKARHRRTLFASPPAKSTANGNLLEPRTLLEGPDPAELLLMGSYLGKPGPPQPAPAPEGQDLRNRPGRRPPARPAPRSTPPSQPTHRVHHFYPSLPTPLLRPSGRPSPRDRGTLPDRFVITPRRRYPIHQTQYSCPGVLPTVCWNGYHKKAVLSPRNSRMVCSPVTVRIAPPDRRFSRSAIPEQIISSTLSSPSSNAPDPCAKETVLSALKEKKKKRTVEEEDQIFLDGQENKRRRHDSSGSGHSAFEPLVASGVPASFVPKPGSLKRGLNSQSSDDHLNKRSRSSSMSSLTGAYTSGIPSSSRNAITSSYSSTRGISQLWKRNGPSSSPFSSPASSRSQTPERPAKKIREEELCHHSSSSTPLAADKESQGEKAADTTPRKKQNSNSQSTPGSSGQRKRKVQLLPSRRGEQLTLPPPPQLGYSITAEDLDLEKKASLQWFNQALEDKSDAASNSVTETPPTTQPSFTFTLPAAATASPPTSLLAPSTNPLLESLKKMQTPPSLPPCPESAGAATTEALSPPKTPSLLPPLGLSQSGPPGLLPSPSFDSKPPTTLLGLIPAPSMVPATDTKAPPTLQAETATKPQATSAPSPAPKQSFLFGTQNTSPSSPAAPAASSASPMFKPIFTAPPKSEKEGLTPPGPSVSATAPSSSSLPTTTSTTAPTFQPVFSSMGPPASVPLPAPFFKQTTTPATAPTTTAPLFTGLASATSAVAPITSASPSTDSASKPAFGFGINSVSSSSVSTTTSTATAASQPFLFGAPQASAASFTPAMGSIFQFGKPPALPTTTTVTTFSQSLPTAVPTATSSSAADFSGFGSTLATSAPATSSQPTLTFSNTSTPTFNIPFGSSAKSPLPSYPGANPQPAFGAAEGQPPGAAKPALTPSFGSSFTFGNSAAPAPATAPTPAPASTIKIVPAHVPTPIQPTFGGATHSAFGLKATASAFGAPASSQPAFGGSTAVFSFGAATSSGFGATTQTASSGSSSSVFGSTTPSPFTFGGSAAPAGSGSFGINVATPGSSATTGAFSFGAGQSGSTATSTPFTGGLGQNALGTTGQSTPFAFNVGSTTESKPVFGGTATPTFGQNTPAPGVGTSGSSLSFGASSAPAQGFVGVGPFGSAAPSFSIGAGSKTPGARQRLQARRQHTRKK
UniProt Q9NP80: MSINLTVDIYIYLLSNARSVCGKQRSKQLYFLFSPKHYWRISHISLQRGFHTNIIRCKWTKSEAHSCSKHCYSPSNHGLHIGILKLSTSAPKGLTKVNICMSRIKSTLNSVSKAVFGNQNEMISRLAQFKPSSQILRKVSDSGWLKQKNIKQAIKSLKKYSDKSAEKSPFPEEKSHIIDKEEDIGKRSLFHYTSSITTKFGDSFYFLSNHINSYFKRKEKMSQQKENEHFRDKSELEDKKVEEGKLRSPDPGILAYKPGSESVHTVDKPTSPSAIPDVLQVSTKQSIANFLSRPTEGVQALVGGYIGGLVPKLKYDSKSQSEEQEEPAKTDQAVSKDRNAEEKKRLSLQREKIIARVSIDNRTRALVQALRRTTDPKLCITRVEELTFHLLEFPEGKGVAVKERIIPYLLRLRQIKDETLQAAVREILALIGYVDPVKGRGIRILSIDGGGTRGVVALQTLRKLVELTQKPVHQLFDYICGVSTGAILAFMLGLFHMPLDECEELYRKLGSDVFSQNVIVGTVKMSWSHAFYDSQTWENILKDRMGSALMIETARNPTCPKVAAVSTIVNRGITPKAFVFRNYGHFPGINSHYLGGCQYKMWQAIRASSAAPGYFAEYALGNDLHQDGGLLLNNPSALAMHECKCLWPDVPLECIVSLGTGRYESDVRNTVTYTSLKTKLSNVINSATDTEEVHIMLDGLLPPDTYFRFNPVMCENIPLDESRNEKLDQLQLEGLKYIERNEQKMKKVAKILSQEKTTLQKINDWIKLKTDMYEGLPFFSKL

How the values were obtained:
Assay in all cases: log2 fold change, soluble protein after heating vs DMSO (PISA); higher = thermal stabilisation; K562 cells, 10 uM, 30 min; active = over 0.2 and 3.5 SD of the protein, either way, in both replicates (recomputed)
[1] = compound: C#Cc1cccc(Nc2ncnc3cc(OCCOC)c(OCCOC)cc23)c1 [erlotinib]
How it was run: (§1)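 K562 cells (2×10^6 cells/mL) were treated with 10 μM compound for 30 min, and aliquots were heated for 3 min over 48°C-58°C. Pooled aliquots were extracted in PBS with 0.5% NP-40 at 4°C, and the supernatant after 21,000xg for 90 min was measured by TMTpro 16plex LC-MS/MS with channel sums equalised. Reported thermal stability, relative to control samples and from duplicates, is a log2 fold change.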

[2] = compound: C/C(=N\NC(=O)C1=CC(=CC=C1)S(=O)(=O)N2CCOCC2)/C3=C(C=CC(=C3)Cl)O
How it was run: as §1

[3] = compound: C1=CC(=C(C=C1Cl)C2=NC3=NC=CN=C3C(=N2)NC4=CC=NC=C4)F
How it was run: as §1

[4] = compound: C1=CC(=CC=C1C2=NC3=C(N2)C=C(C=C3)C(=O)N)OC4=CC=C(C=C4)Cl
How it was run: as §1

[5] = compound: C1=CC2=C(C=CC(=C2)/C=C\3/C(=O)NC(=NCC4=CC=CS4)S3)N=C1
How it was run: as §1

[6] = compound: C1=CC=C(C=C1)C2=NC(=C(N2)C3=CC=NC=C3)C4=CC(=C(C=C4)Cl)O
How it was run: as §1

[7] = compound: C1=CC=C2C(=C1)C3=NNC4=CC=CC(=C43)C2=O
How it was run: as §1

[8] = compound: C1COCCN1CCN2C3=CC=CC=C3N=C2NC(=O)C4=CC(=CC=C4)[N+](=O)[O-] [IRAK-1-4 Inhibitor I]
How it was run: as §1

[9] = compound: CC(=O)c1cnc2ccc(-c3cc(Cl)c(O)c(Cl)c3)nc2c1N[C@H]1CC[C@H](CN(C)C)CC1
How it was run: as §1

[10] = compound: CC(C)(C)Cn1c(N)nc2ccc(-c3[nH]c(C(C)(C)C)nc3-c3ccc(F)cc3)nc21 [ralimetinib]
How it was run: as §1

[11] = compound: CC(C)(O)CC(=O)NCCn1ccc2ncnc(Nc3ccc(Oc4cccc(C(F)(F)F)c4)c(Cl)c3)c21
How it was run: as §1

[12] = compound: CC(C)C1=C2N=C(C=C(N2N=C1)NCC3=CC=CC=C3)NCCCCCCN
How it was run: as §1

[13] = compound: CC(C)C[C@@H](C=O)NC(=O)[C@H](CC(C)C)NC(=O)[C@H](CC(C)C)NC(=O)OCc1ccccc1
How it was run: as §1

[14] = compound: CC(C)N(C[C@H]1O[C@@H](n2cnc3c(N)ncnc32)[C@H](O)[C@@H]1O)[C@H]1C[C@@H](CCc2nc3cc(C(C)(C)C)ccc3[nH]2)C1 [pinometostat]
How it was run: as §1

[15] = compound: C1=CC2=NC=CN=C2C=C1/C=C/3\C(=O)NC(=O)S3
How it was run: as §1

[16] = compound: C1CCN(C1)C(=O)NC2=CC=CC(=C2)NC3=NC=C(C(=N3)NCCC4=CN=CN4)Br
How it was run: as §1

[17] = compound: C1CN(CCC1(CC2=CC=C(C=C2)Cl)N)C3=NC=NC4=C3C=CN4
How it was run: as §1

[18] = compound: C=CC(=O)N1CCC[C@@H](n2nc(-c3ccc(Oc4ccccc4)cc3)c3c(N)ncnc32)C1 [ibrutinib]
How it was run: as §1

[19] = compound: CC1=C(C2=C(C=C1)C(=O)C3=CC=CC=C3N2CCCN)C
How it was run: as §1

[20] = compound: CC1=C(C(CC(=O)N1)C2=CC=C(C=C2)C(F)(F)F)C(=O)NC3=C(C=C4C(=C3)C=NN4)F
How it was run: as §1

Target	log2 fold change [1]	log2 fold change [2]	log2 fold change [3]	log2 fold change [4]	log2 fold change [5]	log2 fold change [6]	log2 fold change [7]	log2 fold change [8]	log2 fold change [9]	log2 fold change [10]	log2 fold change [11]	log2 fold change [12]	log2 fold change [13]	log2 fold change [14]	log2 fold change [15]	log2 fold change [16]	log2 fold change [17]	log2 fold change [18]	log2 fold change [19]	log2 fold change [20]
PMS2 (UniProt P54278)	inactive: -0.094	inactive: -0.244	inactive: -0.101	inactive: 0.361	inactive: 0.321	inactive: -0.081	inactive: 0.185	inactive: 0.018	inactive: 0.209	inactive: 0.067	inactive: -0.228	inactive: -0.356	inactive: -0.052	inactive: -0.366	–	–	–	–	–	–
PNPLA4 (UniProt P41247)	inactive: 0.426	inactive: 0.13	–	inactive: -0.176	inactive: -0.148	inactive: -0.084	inactive: 0.059	inactive: -0.094	inactive: 0.005	inactive: -0.022	–	inactive: 0.115	inactive: 0.209	inactive: 0.049	inactive: 0.133	inactive: 0.108	inactive: 0.029	inactive: 0.012	inactive: -0.025	–
POLR2L (UniProt P62875)	inactive: -0.049	inactive: -0.012	inactive: 0.201	inactive: -0.084	inactive: 0.046	inactive: -0.158	inactive: 0.095	–	inactive: 0.009	inactive: 0.012	inactive: -0.003	inactive: 0.051	inactive: 0.138	–	–	inactive: -0.099	inactive: -0.111	–	inactive: 0.27	inactive: -0.007
PLGRKT (UniProt Q9HBL7)	inactive: 0.028	inactive: -0.048	inactive: 0.069	inactive: 0.036	inactive: 0.027	–	inactive: -0.213	–	inactive: -0.088	–	inactive: 0.113	inactive: -0.012	–	–	inactive: 0.082	inactive: 0.108	inactive: 0.116	inactive: 0.049	inactive: 0.079	inactive: 0.014
PLP2 (UniProt Q04941)	inactive: 0.206	inactive: -0.101	inactive: 0.103	inactive: -0.31	inactive: -0.255	–	inactive: -0.057	inactive: 0.073	inactive: -0.171	–	inactive: 0.078	inactive: 0.174	–	inactive: -0.233	inactive: -0.234	–	–	inactive: -0.25	–	inactive: -0.12
PMVK (UniProt Q15126)	inactive: 0.001	inactive: -0.518	inactive: 0.006	inactive: 0.042	inactive: 0.052	–	inactive: -0.115	–	inactive: -0.069	–	inactive: -0.072	inactive: -0.195	–	–	inactive: -0.045	inactive: -0.006	inactive: 0.15	inactive: -0.039	inactive: 0.061	–
POMT1 (UniProt Q9Y6A1)	inactive: -0.05	inactive: -0.093	inactive: -0.046	inactive: -0.06	inactive: 0.083	–	inactive: 0.009	inactive: 0.261	inactive: -0.048	–	inactive: -0.123	inactive: -0.192	–	inactive: 0.097	–	inactive: 0.073	inactive: 0.067	–	inactive: -0.045	–
PLVAP (UniProt Q9BX97)	inactive: -0.096	inactive: -0.1	inactive: -0.186	inactive: 0.103	inactive: 0.106	inactive: -0.015	inactive: -0.101	–	inactive: 0.034	inactive: -0.042	inactive: 0	inactive: 0.135	inactive: -0.069	–	inactive: 0.007	inactive: -0.118	inactive: 0.071	inactive: 0.224	inactive: -0.046	inactive: -0.077
PMAIP1 (UniProt Q13794)	inactive: -0.176	inactive: -0.06	inactive: 0.015	inactive: 0.017	inactive: -0.13	inactive: -0.22	inactive: 0.067	–	inactive: -0.093	inactive: 0.105	inactive: 0	inactive: -0.458	inactive: 0.245	–	inactive: -0.105	inactive: -0.049	inactive: 0.17	inactive: 0.114	inactive: -0.053	inactive: -0.037
PPIC (UniProt P45877)	inactive: -0.196	inactive: 0.151	inactive: -0.015	inactive: 0.105	inactive: 0.267	–	inactive: -0.003	inactive: 0.154	inactive: -0.122	–	inactive: -0.021	inactive: 0.023	–	inactive: -0.021	inactive: 0.027	–	–	inactive: -0.023	–	inactive: 0.053
PMPCB (UniProt O75439)	inactive: -0.022	inactive: 0	inactive: 0.031	inactive: 0.024	inactive: 0.019	inactive: 0.023	inactive: 0.078	inactive: 0.035	inactive: 0.01	inactive: 0.064	inactive: -0.108	inactive: 0.04	inactive: 0.012	inactive: -0.022	inactive: 0.007	inactive: -0.014	inactive: 0.046	inactive: 0.008	inactive: 0.015	–
PLIN2 (UniProt Q99541)	inactive: 0.033	inactive: 0.028	inactive: 0.043	inactive: -0.038	inactive: 0.023	inactive: 0	inactive: -0.089	inactive: 0.058	inactive: 0.005	inactive: -0.065	inactive: -0.083	active: -1.11	inactive: -0.014	inactive: 0.007	inactive: 0.101	inactive: 0.028	inactive: -0.068	inactive: 0.055	inactive: -0.022	–
POLR2M (UniProt Q6EEV4)	inactive: -0.044	inactive: 0.096	inactive: 0.242	inactive: 0.223	inactive: -0.006	–	inactive: -0.048	inactive: -0.014	inactive: -0.027	–	inactive: -0.091	inactive: 0.128	–	inactive: 0.005	inactive: -0.001	inactive: -0.041	inactive: 0.024	inactive: -0.075	inactive: 0.209	–
POLR1B isoform 3 (UniProt Q9H9Y6)	inactive: -0.113	–	inactive: -0.031	inactive: 0.174	–	inactive: 0.066	–	inactive: -0.01	–	inactive: 0.038	inactive: -0.024	inactive: -0.125	inactive: 0.099	inactive: 0.1	–	inactive: 0.022	inactive: -0.089	–	inactive: -0.115	inactive: 0.045
PNN (UniProt Q9H307)	inactive: 0.007	inactive: -0.001	inactive: 0.032	inactive: 0.024	inactive: 0.025	inactive: -0.107	inactive: -0.11	inactive: 0.051	inactive: -0.134	inactive: 0.032	inactive: 0.004	inactive: -0.146	inactive: 0.145	inactive: 0.124	inactive: 0.085	–	–	inactive: -0.047	–	–
POLR3H (UniProt Q9Y535)	inactive: 0.029	inactive: 0.157	inactive: 0.209	inactive: 0.06	inactive: 0.043	inactive: -0.078	inactive: -0.04	inactive: -0.002	inactive: -0.081	inactive: 0.142	inactive: 0.131	inactive: 0.051	inactive: -0.061	inactive: 0.024	inactive: 0.054	–	–	inactive: -0.066	–	inactive: -0.058
PPID (UniProt Q08752)	inactive: 0.114	inactive: 0.111	inactive: -0.01	inactive: -0.021	inactive: 0.075	inactive: 0.095	inactive: 0.021	inactive: -0.141	inactive: -0.013	inactive: 0.103	inactive: -0.152	inactive: -0.238	inactive: 0.053	inactive: 0.105	inactive: 0.007	inactive: -0.076	inactive: -0.118	inactive: -0.057	inactive: 0.022	–
POMGNT2 (UniProt Q8NAT1)	inactive: -0.006	inactive: 0.096	–	inactive: -0.112	inactive: -0.078	–	inactive: 0.03	inactive: 0.043	inactive: -0.208	–	–	inactive: 0.169	–	inactive: 0.025	inactive: -0.067	–	–	inactive: -0.385	–	–
PLG (UniProt P00747)	inactive: -0.222	inactive: -0.006	–	inactive: 0.127	inactive: -0.015	–	inactive: -0.104	inactive: -0.009	inactive: 0.056	–	–	inactive: 0.121	–	inactive: -0.018	inactive: -0.001	inactive: 0.153	inactive: 0.194	inactive: -0.003	inactive: -0.201	inactive: 0.111
PMM2 (UniProt O15305)	inactive: 0.03	inactive: -0.034	inactive: 0.008	inactive: -0.02	inactive: 0.023	inactive: -0.014	inactive: -0.019	inactive: 0.025	inactive: 0.012	inactive: -0.1	inactive: 0.009	inactive: 0.089	inactive: -0.032	inactive: -0.029	inactive: 0.003	inactive: -0.004	inactive: 0.05	inactive: -0.025	inactive: -0.015	–
POM121C (UniProt A8CG34)	inactive: 0.062	inactive: -0.179	–	inactive: -0.015	inactive: 0.152	inactive: -0.006	inactive: -0.277	inactive: -0.072	inactive: -0.263	inactive: 0.042	–	inactive: -0.198	inactive: 0.223	inactive: 0.075	inactive: -0.08	–	–	inactive: 0.123	–	inactive: -0.353
PLK1 (UniProt P53350)	inactive: -0.027	inactive: 0.035	inactive: 0.006	inactive: 0.079	inactive: -0.041	inactive: -0.018	inactive: 0.058	inactive: -0.035	active: -1.17	inactive: 0.006	inactive: -0.011	inactive: 0.186	inactive: 0.015	inactive: 0.019	inactive: -0.017	inactive: -0.003	inactive: -0.039	inactive: 0.022	inactive: 0.144	–
PNPLA8 (UniProt Q9NP80)	inactive: 0.101	inactive: 0.031	inactive: 0.014	inactive: -0.029	inactive: 0.008	inactive: 0.089	inactive: 0.022	inactive: -0.022	inactive: 0.151	inactive: -0.005	inactive: -0.071	inactive: -0.06	inactive: 0.003	inactive: 0.064	inactive: 0	inactive: 0.018	inactive: 0.037	inactive: -0.049	inactive: 0.043	–

2 entries from above, reformatted.
Target | log2 fold change [1] | log2 fold change [2] | log2 fold change [3] | log2 fold change [4] | log2 fold change [5] | log2 fold change [6] | log2 fold change [7] | log2 fold change [8] | log2 fold change [9] | log2 fold change [10] | log2 fold change [11] | log2 fold change [12] | log2 fold change [13] | log2 fold change [14] | log2 fold change [15] | log2 fold change [16] | log2 fold change [17] | log2 fold change [18] | log2 fold change [19] | log2 fold change [20]
PMS2 (UniProt P54278) | inactive: -0.094 | inactive: -0.244 | inactive: -0.101 | inactive: 0.361 | inactive: 0.321 | inactive: -0.081 | inactive: 0.185 | inactive: 0.018 | inactive: 0.209 | inactive: 0.067 | inactive: -0.228 | inactive: -0.356 | inactive: -0.052 | inactive: -0.366 | – | – | – | – | – | –
PNPLA4 (UniProt P41247) | inactive: 0.426 | inactive: 0.13 | – | inactive: -0.176 | inactive: -0.148 | inactive: -0.084 | inactive: 0.059 | inactive: -0.094 | inactive: 0.005 | inactive: -0.022 | – | inactive: 0.115 | inactive: 0.209 | inactive: 0.049 | inactive: 0.133 | inactive: 0.108 | inactive: 0.029 | inactive: 0.012 | inactive: -0.025 | –
